Assay results taken from US20190100594A1.
These are yes or no findings as the source states them, for the method shown. Some binding calls cover weakened binding; strength is not graded here.

The chains behind the UniProt entries cited, without tags or fusion partners. Residues count along the entry.
UniProt Q9Y5U5, residues 26-241: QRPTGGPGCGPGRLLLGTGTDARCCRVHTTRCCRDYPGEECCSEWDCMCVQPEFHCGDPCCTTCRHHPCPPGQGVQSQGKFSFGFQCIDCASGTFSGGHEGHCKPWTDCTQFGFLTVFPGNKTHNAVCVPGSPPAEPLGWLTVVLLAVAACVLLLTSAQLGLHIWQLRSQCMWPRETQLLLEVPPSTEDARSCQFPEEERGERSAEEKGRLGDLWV

Columns and labels:
[1] = target: GITR expressed on CHO cells (Homo sapiens (Human)) (UniProt Q9Y5U5); experiment: flow cytometry on GITR-expressing CHO cells, MFI-FL4
[2] = target: GITR expressed on CHO cells (Homo sapiens (Human)) (UniProt Q9Y5U5); experiment: flow cytometry competition on GITR-expressing CHO cells; blocked ligand recombinant GITRL; readout GITRL bound, MFI-FL1
[3] = target: human GITR-CHO (human) (UniProt Q9Y5U5); experiment: flow cytometry on human GITR-CHO cells

Row | Binder | binding [1] | binding [2] | binding [3]
1 | B2 (VHH, not shown: a dimerising Fc or GST; small tags and cut ends) VHH: QVQLQESGGGLVQPGGSLRLSCAASGSVFSIDSMSWFRQAPGNERELVALITGGHTTTYGDSVKGRFTISRASAPNTVHLQMNSLQPEDTAVYYCNAAVSTGWGRNADDYWGQGTQVTVS | binds | binds | 
2 | C4 (VHH, not shown: a dimerising Fc or GST) VHH: QVQLVQSGGGLVQPGESLRLSCAASGSVFSIDSMSWFRQGPGNERELVALITGGRTTTYADSVKGRFTISRANAPNTVHLQMNSLKPEDTAVYYCNAAVSTGWGRSADDYWGQGTQVTVS | binds | binds | 
3 | H11 (VHH, not shown: a dimerising Fc or GST) VHH: QVQLVQSGGGLVQPGGSLRLSCAASGSVFSIDSMSWFRQAPGNERELVALITGGRTTTYADSVKGRFTISRASAPNTVHLQMNSLKPEDTAVYYCNAVVSTGWGRNADDYWGQGTQVTVS | binds | binds | 
4 | B5 (VHH, not shown: a dimerising Fc or GST) VHH: QVQLVQSGGGLVQPGESLRLSCAASGSVFSIDSMSWFRQGPGNERELVALITGGRTTTYADSVKGRFTISRANAPNTVHLQMNSLEPEDTAVYYCNAAVSTGWGRNADDYWGQGTQVTVS | binds | binds | 
5 | E2 (VHH, not shown: a dimerising Fc or GST; small tags and cut ends) VHH: QVQLQESGGGLVQPGGSLRLSCAASGSVFSIDSMSWFRQAPGNERELVALITGGRTTTYADSVKGRFTISRASAPNTVYLQMNSLKPEDTAVYYCNAVVSTGWGRNADDYWGQGTQVTVS | binds | binds | 
6 | B7 (VHH, not shown: a dimerising Fc or GST) VHH: QVQLQESGGGLVQPGGSLRLSCAASGSVFSIDSMSWFRQTPGNERELVAHITGGRTTTYADSVKGRFTISRASAPNTVHLQMNNLKPEDTAVYYCNAAVSTGWGRNADDYWGQGTQVTVS | binds | binds | 
7 | C06 (VHH, not shown: a dimerising Fc or GST; small tags and cut ends) VHH: QVQLQESGGGLVQAGGSLRLSCAASGSVFSIDAMGWYRLAPGQQRELVAVLNGISSAKYADSVKGRFTISGDSAKNAVYLQMDGLKPEDTAVYYCYADVSTGWGRDAHGYWGQGTQVTVSS | binds | binds | 
8 | B3 (VHH, not shown: a dimerising Fc or GST) VHH: QVQLVQSGGGLVQPGGSLRLICAASGSVFSIDSMSWFRQRPGNERELVALITGGRTTTYSDSVKGRFTISRASALNTVHLQMNSLKPEDTAVYYCNAALSTGWGRDASAYWGQGTQVTVS | binds | binds | 
9 | F05 (VHH, not shown: a dimerising Fc or GST; small tags and cut ends) VHH: QVQLVQSGGGLVQAGGSLRLSCTASGSIFSINHMAWYRQAPGKQREMVAHITGGASTKYADSVKGRFTISRDSALNTVSLRMNSLKPEDTAVYYCNAEVNEGWNADYYDVWGQGTQVTVSS | binds | binds | 
10 | C7 (VHH, not shown: a dimerising Fc or GST) VHH: QVQLQESGGGLVQAGGSLRLSCTASGSIFSIDDMGWYRLAPGKQRELVAVHSGSSTNYGDSVKGRFTISGDSAKNTVYLQMHRLEPEDTAVYYCYAAISSGWGRDAEDYWGQGTQVTVS | binds | binds | 
11 | B12 (VHH, not shown: a dimerising Fc or GST) VHH: QVQLQQSGGGLVQAGGSLRLSCAASGSIFSIDAMGWYRLAPGKQRELVAVIDGVSPNYADSVKGRFTISSDIAKNTVYLQMHSPKPEDTAVYYCNADVSTGWGRPADHYWGQGTQVTVS | binds | binds | 
12 | 2A1 (VHH, not shown: a dimerising Fc or GST; small tags and cut ends) VHH: EVQLVQSGGGLVQPGGSLRLSCAASGNIFSIDAMGWYRQAPGRQRELVAQIPGGPTDSVKGRFTVSGNSAKNTGYLQMNTLKPEDTAVYYCNIVASTSWGSPSKVYWGQGTQATVSS | binds | binds | 
13 | hzC06v3.4 (VHH) VHH: EVQLLESGGGEVQPGGSLRLSCAASGSVFSIDAMGWYRQAPGKQRELVAVLSGISSAKYAESVKGRFTISRDNAKNTVYLQMSSLRAEDTAVYYCYADVSTGWGRDAHGYWGQGTLVTV |  |  | binds
14 | hzC06v3.6 (VHH) VHH: EVQLLESGGGEVQPGGSLRLSCAASGSVFSIDAMGWYRQAPGKQRELVAVLSGISSAKYAESVKGRFTISRASAPNTVYLQMSSLRAEDTAVYYCYADVSTGWGRDAHGYWGQGTLVTV |  |  | binds
15 | hzC06v3.7 (VHH) VHH: EVQLLESGGGEVQPGGSLRLSCAASGSVFSIDAMGWYRQAPGKQRELVAVLSGISSAKYAASAPGRFTISRDAVKNTVYLQMSSLRAEDTAVYYCYADVSTGWGRDAHGYWGQGTLVTV |  |  | binds
16 | F2 (VHH, not shown: a dimerising Fc or GST; small tags and cut ends) VHH: QLVQSGGGLVQPGESLRLSCAASGSVFSIDSVSWFRQGPGNERELVALITGGRTTTYADSVKGRFTISRANAPNTVHLRMNSLKPEDTAVYYCNAAVSTGWGRNADDYWGQGTQVTVS | binds | binds | 

Next, values leading:

Row | binding [1] | binding [2] | binding [3] | Binder
17 |  |  | binds | hzCC04v2 (VHH) VHH: EVQLLESGGGEVQPGGSLRLSCAASGFTFSTHGMDWFRQAPGKGLEWVSAINNGGSWTSYASSVKGRFTISRDNAKNTLYLQMSSLRAEDTAVYWCQNRVTRGQGTLVTV
18 |  |  | binds | hzCC04v1.2.1 (VHH) VHH: EVQLLESGGGEVQPGGSLRLSCAASGFTFSTHGMDWFRQAPGKDLEWVSAINQGGSWTSYASSVKGRFTISRDNAKNTLYLQMSSLRAEDTAVYYCQNRVTRGQGTLVTV
19 |  |  | binds | hzCC04v2.2 (VHH) VHH: EVQLLESGGGEVQPGGSLRLSCAASGFTFSTHGMDWFRQAPGKGLEWVSAINNGGSWTSYASSVKGRFTISRDNAKNTLYLQMSSLRAEDTAVYYCQNRVTRGQGTLVTV
20 |  |  | binds | hzCC04v5 (VHH) VHH: EVQLLESGGGEVQPGGSLRLSCAASGFTFSTHGMDWFRQAPGKDLEWVSAIQSGGSWTSYASSVKGRFTISRDNAKNTLYLQMSSLRAEDTAVYWCQNRVTRGQGTLVTV
21 |  |  | binds | hzC06v3.9 (VHH) VHH: EVQLLESGGGEVQPGGSLRLSCAASGSVFSIDAMGWYRQAPGKQRELVAVLSGISSAKYAASAPGRFTISRDNAKNTVYLQMSSLRAEDTAVYYCYADVSTGWGRDAHGYWGQGTLVTV
22 |  |  | binds | hzC06v3.10 (VHH) VHH: EVQLLESGGGEVQPGGSLRLSCAASGSVFSIDAMGWYRQAPGKQRELVAVLSGISSAKYADAVKGRFTISRASAPNTVYLQMSSLRAEDTAVYYCYADVSTGWGRDAHGYWGQGTLVTV
23 |  |  | binds | hzC06v3.12 (VHH) VHH: EVQLLESGGGEVQPGGSLRLSCAASGSVFSIDAMGWYRQAPGKQRELVAVLSGISSAKYAASAPGRFTISRASAPNTVYLQMSSLRAEDTAVYYCYADVSTGWGRDAHGYWGQGTLVTV
24 |  |  | binds | hzC06v3.11 (VHH) VHH: EVQLLESGGGEVQPGGSLRLSCAASGSVFSIDAMGWYRQAPGKQRELVAVLSGISSAKYADAVEGRFTISRASAPNTVYLQMSSLRAEDTAVYYCYADVSTGWGRDAHGYWGQGTLVTV
